# Reference: PubChem BioAssay AID540256 (National Center for Advancing Translational Sciences (NCATS), 2011)
# Among all 300,000 compounds or so, about 3,700 (1.2%) were called active. The shares of active, inactive and inconclusive entries below differ from those in the screen. Calls come from the whole dose curve; tested in HEK293 cells. Potencies of inconclusive entries are doubtful fits and often do not repeat.
# Experiment: qHTS for Inhibitors of binding or entry into cells for Lassa Virus; note: nearly all actives have a fitted effect of over 50% in size
# Conditions: Lassa virus pseudotype entry inhibition, cell reporter; activity change, negative = inhibition: at 37.9 µM (top of the series) unless noted
# % is set by controls: 0 for no effect and ±100 for the full control effect; potency is the fitted concentration of half-maximal effect.
Compound,Potency,"activity change, negative = inhibition"
O=C(Nc1ccc(C(=O)N2CCCC2)cc1)Nc1ccc(Cl)cc1Cl,"inconclusive: 20 µM [activator, single point]",
O=C1c2ccccc2C(Nc2ccc(F)c(Cl)c2)N1Cc1ccco1 (stereo not given),"inconclusive: 29.1 µM [inhibitor, single point]",
COc1ccc(CNC(=O)c2cccc(N(C)C)c2)cc1,,inactive: 13%
COc1ccc(-c2nc(CN3CCN(c4ncnc5ccccc45)CC3)c(C)o2)c(OC)c1,"inconclusive: 20.6 µM [inhibitor, single point]",
Cc1sc(NC(=O)CN(Cc2ccc(F)cc2)C(=O)C(C)(C)C)c(C(N)=O)c1C,,inactive: -12.7% [at 46.1 µM]
O=[N+]([O-])/C=C/c1cn(Cc2ccc(F)cc2)c2ccccc12,"inconclusive: 25.9 µM [inhibitor, single point]",
Cc1ccc(OCCCCN2CCC(C)CC2)c(Br)c1,"inconclusive: 12.6 µM [inhibitor, partial curve, poor fit]",
CCOC(=O)N1CCN(C(=O)CSc2nc3ccccc3c(=O)n2-c2ccccc2)CC1,active: 8.91 µM,
Cc1cccc(OCCNc2cc(N3CCN(CCO)CC3)ccc2[N+](=O)[O-])c1,,inactive: 15.1%
Nc1ccc2ccccc2c1C(=O)c1ccccc1,,inactive: 3.13% [at 46.1 µM]
COc1ccc(N2CCN(S(=O)(=O)CCNC(=O)Cc3ccc(OC)c(OC)c3)CC2)cc1,,inactive: -18.9% [at 46.1 µM]
O=c1c2ccccc2[nH]c(=S)n1Cc1ccccc1Cl,,inactive: -8.98% [at 46.1 µM]
Clc1ccc(CSC(Cn2ccnc2)c2ccc(Cl)cc2Cl)cc1 (stereo not given),"inconclusive: 14.6 µM [inhibitor, partial curve, poor fit]",
Cc1sc2nc(COC(=O)c3ccc(O)cc3)[nH]c(=O)c2c1C,"inconclusive: 0.891 µM [inhibitor, full curve, poor fit]",
O=C(CSc1nc2ncccc2o1)Nc1cccc(C(F)(F)F)c1,,inactive: 17.6% [at 46.1 µM]
CCS(=O)(=O)c1oc(-c2ccc(F)cc2)nc1S(=O)(=O)c1ccccc1,"inconclusive: 10 µM [inhibitor, partial curve, poor fit]",
CC(Oc1cc(-n2cnc3ccc(OCC(O)CO)cc32)sc1C(N)=O)c1ccccc1Cl (stereo not given),"inconclusive: 0.628 µM [inhibitor, full curve, poor fit]",
Cc1ccc(S(=O)(=O)N2CCN(C(=O)c3c(C)nn(-c4ccccc4)c3Cl)CC2)cc1,"inconclusive: 10.3 µM [inhibitor, partial curve, poor fit]",
Cc1ccc(NC(=O)c2cccc3c2C(=O)N(C2CCCCC2)C3)cc1,"inconclusive: 29.1 µM [inhibitor, single point]",
Cc1ccc(NC2=C(N3CCCCC3)C(=O)c3ccccc3C2=O)cc1,"inconclusive: 29.1 µM [inhibitor, single point]",
Cc1ccc2nc(-c3ccc(C)o3)c(Nc3ccc4c(c3)OCCO4)n2c1,"inconclusive: 35.5 µM [inhibitor, single point]",
O=C(NCCc1c[nH]c2ccccc12)/C(=C\c1cccs1)NC(=O)c1ccccc1,,inactive: -8.2%
Cc1n[nH]c(C)c1CCN,,inactive: 0.957%
Cc1ccc(C(=O)N[C@H](C(=O)Nc2sccc2C(N)=O)C(C)C)cc1,"inconclusive: 35.5 µM [inhibitor, single point]",
COc1ccc(N2CCN(C(=O)CN3C(=O)COc4ccc(S(=O)(=O)N5CCC(C)CC5)cc43)CC2)cc1,,inactive: 5.71% [at 46.1 µM]

# A different layout for some results above.
Compound | Potency | activity change, negative = inhibition
Cc1cccc(OCCNc2cc(N3CCN(CCO)CC3)ccc2[N+](=O)[O-])c1 |  | inactive: 15.1%
O=C(CSc1nc2ncccc2o1)Nc1cccc(C(F)(F)F)c1 |  | inactive: 17.6% [at 46.1 µM]

# Additional structures:

Compound,Potency,"activity change, negative = inhibition"
Cc1c(Cl)cccc1Nc1nc(N)nc(CSC(=S)N2CCOCC2)n1,"inconclusive: 6.31 µM [activator, partial curve, poor fit]",
COc1ccc(N2CC(NC(=O)C3CCCCC3)CC2=O)cc1OC (stereo not given),,inactive: 7.57% [at 46.1 µM]
COc1ccc(N(CC(=O)NC2CCCCC2)C(=O)c2ccc(C)s2)c(OC)c1,"inconclusive: 5.62 µM [inhibitor, single point]",
CN(C)CCNc1ccc2nnn3c4ccc(O)cc4c(=O)c1c23,,inactive: -11.9%
C=CCN(c1ccccc1OC)S(=O)(=O)c1cccc(C(=O)NCC(c2ccc(OC)cc2)N2CCCC2)c1 (stereo not given),"inconclusive: 35.5 µM [inhibitor, single point]",
C=CCOc1ccc(/C(O)=C2/C(=O)C(=O)N(CCCn3ccnc3)C2c2cccs2)cc1 (stereo not given),,inactive: 7.75%
CN1CCC(N(C)C(=O)/C=C/c2cn(-c3ccccc3)nc2-c2cccs2)CC1,"inconclusive: 35.5 µM [inhibitor, partial curve, poor fit]",
COc1ccc(CC(=O)Nc2cccc(SC)c2)cc1OC,"inconclusive: 11.2 µM [inhibitor, partial curve]",
Clc1nc(-c2ccccc2)c2ccccc2n1,,inactive: 1.71% [at 46.1 µM]
CC(C)c1ccccc1-n1c(SCc2cc(=O)oc3ccc4ccccc4c23)nnc1-c1cccnc1,"inconclusive: 15.8 µM [inhibitor, partial curve, poor fit]",
O=C(NNC(=O)c1ccccc1OCc1ccc(F)cc1)c1ccccc1O,"inconclusive: 10 µM [inhibitor, partial curve, poor fit]",
CN(C)CCCNC(=S)N(CCN(C)C)Cc1cc2cc3c(cc2[nH]c1=O)OCCO3,,inactive: -3.52% [at 46.1 µM]
CC(CCc1ccccc1)NC(=O)CSc1nnnn1C (stereo not given),,inactive: 0.589%
CCN(C(=O)CSc1nc(-c2ccccc2)no1)c1ccccc1,"inconclusive: 35.5 µM [inhibitor, single point]",
Cn1c(=O)c2c(ncn2CC(=O)N/N=C/C=C\c2ccccc2[N+](=O)[O-])n(C)c1=O,"inconclusive: 35.5 µM [inhibitor, single point]",
O=C(COc1ccc(Br)cc1CNCCCN1CCOCC1)Nc1ccccc1,"inconclusive: 29.1 µM [inhibitor, single point]",
Cn1nnnc1SCC(=O)Nc1ccc(Cl)cn1,"inconclusive: 5.62 µM [activator, full curve, poor fit]",
Nc1ncnc2c1ncn2[C@@H]1O[C@H](CO)[C@@H](O)[C@H]1O,inactive,
O=C(Nc1cccc(O)c1)c1ccc(S(=O)(=O)N2CCCCCC2)cc1,"inconclusive: 35.5 µM [inhibitor, single point]",
O=C(C1CCN(S(=O)(=O)c2ccc(Br)s2)CC1)N1CCN(c2cccc(C(F)(F)F)c2)CC1,active: 8.91 µM,
O=C(CSCc1cnn(-c2ccccc2)c1-n1cccc1)NCc1cccc(Cl)c1,,inactive: 1.75% [at 46.1 µM]
Cc1cccc(C)c1NC(=O)CC1SC2=NCCN2C1=O (stereo not given),,inactive: -13.1%
CCn1ncc(C2=NOC(C(=O)NCC(C)C)C2)c1C (stereo not given),"inconclusive: 0.58 µM [inhibitor, partial curve]",
O=C(Oc1cccnc1)c1ccco1,"inconclusive: 7.94 µM [activator, partial curve, poor fit]",
Nc1ncnc(NCc2ccccc2)c1[N+](=O)[O-],,inactive: 4.56%

Compound,Potency,"activity change, negative = inhibition"
COC1=C(Nc2ccc(OC)cc2)C(=O)c2ccccc2C1=O,"inconclusive: 0.562 µM [activator, full curve, poor fit]",
Cc1ccc(S(=O)CCNC(=O)Cc2ccccc2)cc1 (stereo not given),"inconclusive: 12.6 µM [activator, partial curve, poor fit]",
CCc1ccc(NC(=O)CSC2=C(C#N)C(c3ccco3)C3=C(CCCC3=O)N2)cc1 (stereo not given),"inconclusive: 35.5 µM [inhibitor, single point]",
CN(C(=O)c1ccccc1Cl)C1CCCCC1,,inactive: -1.9%
COc1ccc(/C=N/NC(=O)CCN2CCN(c3ccccc3)CC2)c(OC)c1OC,"inconclusive: 12.6 µM [inhibitor, partial curve, poor fit]",
Cc1ccc(C(=O)NC(=S)Nc2ccc(NC(=O)c3cccs3)cc2)cc1[N+](=O)[O-],,inactive: 5.36%
N#Cc1c(-n2ncnc2-c2ccc(F)cc2)sc2c1CCCCC2,,inactive: -2.78% [at 46.1 µM]
O=C(Nc1ccccc1Cl)c1ccc([N+](=O)[O-])o1,"inconclusive: 35.5 µM [inhibitor, single point]",
CSc1ccc(CNCc2ccco2)cc1,,inconclusive: 10.8% [activator]
CN(C)c1ccc(P(=O)(OCc2ccccc2)C(O)c2cccnc2)cc1 (stereo not given),"inconclusive: 0.0046 µM [inhibitor, full curve, poor fit]",
CN1C(=O)c2ccc(Oc3ccccc3)cc2C1=O,,inactive: 14.2%
O=C1CCCC2=C1C(Cc1ccccc1)C1=C(CCCC1=O)O2,,inactive: -0.0598%
O=C(Nc1ccccc1)Nc1nccs1,,inactive: 9.44%
CC(=O)c1cccc(NC(=O)CCCN(C)S(=O)(=O)c2ccc(F)cc2)c1,,inactive: -18.6% [at 46.1 µM]
Cc1c(Cl)cccc1NC(=O)NC1CCCCC1,"inconclusive: 6.51 µM [inhibitor, full curve]",
CCSc1nnc2nc(C)cc(C)n12,,inactive: -8.19%
O=C1c2cccc(OCC(=O)N3CCCc4ccccc43)c2CCN1Cc1cccnc1,"inconclusive: 7.08 µM [inhibitor, partial curve, poor fit]",
c1ccc(-c2nc(NCCCn3ccnc3)c3oc4ccccc4c3n2)cc1,,inactive: -14.8%
Cc1nc(CSc2nnc(C)s2)cs1,,inactive: 5.15%
C=CCN(c1ccccc1)S(=O)(=O)c1cccc(C(=O)NCC(c2cccs2)N2CCOCC2)c1 (stereo not given),"inconclusive: 31.6 µM [inhibitor, single point]",
c1ccc(-c2nc(-c3ccncc3)no2)cc1,,inactive: 0.0143%
Cc1ccc(N(Cc2ccccc2F)S(C)(=O)=O)c(C)c1,"inconclusive: 12.6 µM [activator, partial curve, poor fit]",
COc1ccc(CNc2ncnc3cc(Cl)ccc23)cc1OC,"inconclusive: 22.4 µM [activator, single point]",
O=C(CCSc1ccccc1)Nc1nc2c(s1)CCCC2,,inactive: -12.9%
Cc1nc(/N=C(\N)NC(=O)NC2CCCCC2)nc2ccccc12,active: 22.4 µM,
